Measured values published in paper doi:10.1101/2024.11.06.622243.
These are yes or no findings as the source states them, for the method shown. In cells and extracts the contact can be indirect. Some entries that bind do so weakly or less than the wild type. For part of these data: Where a sequence is shown, tags or fusion partners need not be part of it. Blank lines part the entries; values can stand above or below the binder they belong to.

Protein sequences, listed by entry. Tags and fused reporters are not part of them.
UniProt P41968: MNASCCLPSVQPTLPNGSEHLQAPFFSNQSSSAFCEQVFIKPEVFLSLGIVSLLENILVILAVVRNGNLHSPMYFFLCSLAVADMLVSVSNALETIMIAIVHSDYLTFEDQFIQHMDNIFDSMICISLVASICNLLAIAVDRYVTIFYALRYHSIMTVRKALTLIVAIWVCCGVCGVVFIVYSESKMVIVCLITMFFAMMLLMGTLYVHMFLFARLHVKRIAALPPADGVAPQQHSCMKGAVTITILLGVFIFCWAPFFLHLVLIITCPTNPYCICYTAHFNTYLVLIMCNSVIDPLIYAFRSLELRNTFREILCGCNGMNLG

Experiments:
[1] = biological target: SmC-MC3R (MC3R with C-terminal SmBiT) (human) (UniProt P41968); test: split reporter; NanoBiT competition in HEK293 cells: NanoBiT constructs co-transfected with pcDNA or untagged MRAP2
[2] = biological target: SmC-MC3R (MC3R with C-terminal SmBiT) (human) (UniProt P41968); test: split reporter; NanoBiT in transiently transfected HEK293 cells, both proteins tagged at the C-terminus, 100 ng of each plasmid (saturation: 100 ng SmC-MC3R with increasing LgC-MRAP2), luminescence read at 37 °C, normalised to the negative control (MC3R-SmC and LgC-Empty)
[3] = biological target: LgC-MC3R (MC3R with C-terminal LgBiT) (human) (UniProt P41968); test: split reporter; NanoBiT competition in HEK293 cells: NanoBiT constructs co-transfected with pcDNA or untagged MRAP2
[4] = biological target: LgC-MC3R (MC3R with C-terminal LgBiT) (human) (UniProt P41968); test: split reporter; NanoBiT in transiently transfected HEK293 cells, both proteins tagged at the C-terminus, 100 ng of each plasmid (saturation: 100 ng SmC-MC3R with increasing LgC-MRAP2), luminescence read at 37 °C, normalised to the negative control (MC3R-SmC and LgC-Empty)

binding [1]: binds | binding [2]: binds
B1: LgC-MRAP2 (MRAP2 with C-terminal LgBiT) (protein, UniProt Q96G30 1-205)
chain: MSAQRLISNRTSQQSASNSDYTWEYEYYEIGPVSFEGLKAHKYSIVIGFWVGLAVFVIFMFFVLTLLTKTGAPHQDNAESSEKRFRMNSFVSDFGRPLEPDKVFSRQGNEESRSLFHCYINEVERLDRAKACHQTTALDSDVQLQEAIRSSGQPEEELNRLMKFDIPNFVNTDQNYFGEDDLLISEPPIVLETKPLSQTSHKDLD

binding [3]: binds | binding [1]: binds
B2: untagged MRAP2 (protein, UniProt Q96G30 1-205)
chain: B1 chain

binding [3]: binds | binding [4]: binds
B3: SmC-MRAP2 (MRAP2 with C-terminal SmBiT) (protein, UniProt Q96G30 1-205)
chain: B1 chain
